Assay results published in article PMC3690454, “14-3-3 Proteins Interact with a Hybrid Prenyl-Phosphorylation Motif to Inhibit G Proteins” (Cell, 2013).
These are yes or no findings as the source states them, for the method shown. For some of these results: In cells and extracts the contact can be indirect. Some binding calls cover weakened binding; strength is not graded here.

Chains of the proteins cited; added tags and fusions are not shown. Lines headed by an entry give the natural chain unless they say otherwise; changes in a name come on top. Residues count along the entry.
UniProt P31946: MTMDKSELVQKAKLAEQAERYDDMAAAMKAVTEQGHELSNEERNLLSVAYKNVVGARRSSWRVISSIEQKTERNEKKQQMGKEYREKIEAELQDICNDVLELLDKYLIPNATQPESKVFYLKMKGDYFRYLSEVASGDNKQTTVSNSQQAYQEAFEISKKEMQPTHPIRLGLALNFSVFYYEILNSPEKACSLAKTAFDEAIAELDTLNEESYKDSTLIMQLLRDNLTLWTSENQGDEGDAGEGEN
UniProt Q13017, residues 382-1007: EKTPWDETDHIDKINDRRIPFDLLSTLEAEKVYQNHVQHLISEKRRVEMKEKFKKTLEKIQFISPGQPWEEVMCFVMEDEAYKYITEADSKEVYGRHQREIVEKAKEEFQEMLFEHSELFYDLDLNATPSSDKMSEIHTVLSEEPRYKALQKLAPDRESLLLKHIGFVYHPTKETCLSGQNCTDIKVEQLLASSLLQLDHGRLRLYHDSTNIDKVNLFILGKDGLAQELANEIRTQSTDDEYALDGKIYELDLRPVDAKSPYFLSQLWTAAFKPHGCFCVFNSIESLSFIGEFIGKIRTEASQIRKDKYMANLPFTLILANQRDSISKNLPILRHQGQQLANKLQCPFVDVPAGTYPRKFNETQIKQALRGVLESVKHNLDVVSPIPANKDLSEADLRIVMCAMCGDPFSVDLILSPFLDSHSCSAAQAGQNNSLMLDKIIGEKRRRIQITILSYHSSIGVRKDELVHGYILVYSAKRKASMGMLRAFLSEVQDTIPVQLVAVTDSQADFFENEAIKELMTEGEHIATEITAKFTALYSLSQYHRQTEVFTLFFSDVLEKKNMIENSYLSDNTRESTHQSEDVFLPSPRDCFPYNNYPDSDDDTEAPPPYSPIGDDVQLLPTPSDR
UniProt P63104: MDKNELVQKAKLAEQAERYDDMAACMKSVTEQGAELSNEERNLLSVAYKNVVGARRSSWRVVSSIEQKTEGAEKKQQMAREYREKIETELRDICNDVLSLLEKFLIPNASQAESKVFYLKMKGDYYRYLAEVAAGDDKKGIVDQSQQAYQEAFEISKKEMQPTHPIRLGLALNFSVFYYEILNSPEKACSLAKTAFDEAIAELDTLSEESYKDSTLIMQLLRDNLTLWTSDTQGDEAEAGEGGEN

Key:
[1] = target: T1, biotinylated Rap1A C-terminal peptide, phosphorylated, not geranylgeranylated; test: BLI; Octet RED96; biotinylated peptides immobilised on streptavidin biosensors; dilution series of 14-3-3ζ; 25 mM Tris, 150 mM NaCl, 0.1% Tween-20; KD of +P-F by steady-state analysis; both purified
T1 sequence (peptide, biotin-aminohexanoic acid (N-Bio-Eahx) on the N-terminus; phosphoserine at 180): EKKKPKKKSC

[2] = target: HA-14-3-3β (UniProt P31946); test: co-IP; COS7 transfected with FLAG-Rnd3 constructs and Myc-Δp190B, with or without HA-14-3-3β, ROCK1 1-420 or calyculin A; IP with anti-FLAG, anti-Myc or anti-HA
[3] = target: Myc-Δp190B (UniProt Q13017); test: as above
[4] = target: GST-14-3-3β (UniProt P31946); test: pull-down; the same competition experiment as a8, read for the peptide and GST-14-3-3β: peptides (10 μg/ml) preincubated 15 min at 4°C with GST-14-3-3β; both purified

Molecule: hexa-His-tagged 14-3-3ζ (from UniProt P63104 1-245)
- binding [1]: binds weakly

Molecule: Myc-Δp190B (from UniProt Q13017 382-1007) (domain or fragment)
- binding [2]: no binding

Molecule: HA-14-3-3β (from UniProt P31946 1-246)
- binding [3]: no binding

B1: biotinylated Rnd3 C-terminal peptide, phosphorylated on S240 (+P−F) (peptide)
peptide: DLRKDKAKSC
modifications: biotin-aminohexanoic acid (N-Bio-Eahx) on the N-terminus; phosphoserine at 240
- binding [4]: binds weakly
